No constants are given. Whether binding was seen depends on the method and setting. In cells and extracts the contact can be indirect.

Protein sequences, listed by entry. Tags and fused reporters are not part of them. Residues count along the entry.
UniProt P05804: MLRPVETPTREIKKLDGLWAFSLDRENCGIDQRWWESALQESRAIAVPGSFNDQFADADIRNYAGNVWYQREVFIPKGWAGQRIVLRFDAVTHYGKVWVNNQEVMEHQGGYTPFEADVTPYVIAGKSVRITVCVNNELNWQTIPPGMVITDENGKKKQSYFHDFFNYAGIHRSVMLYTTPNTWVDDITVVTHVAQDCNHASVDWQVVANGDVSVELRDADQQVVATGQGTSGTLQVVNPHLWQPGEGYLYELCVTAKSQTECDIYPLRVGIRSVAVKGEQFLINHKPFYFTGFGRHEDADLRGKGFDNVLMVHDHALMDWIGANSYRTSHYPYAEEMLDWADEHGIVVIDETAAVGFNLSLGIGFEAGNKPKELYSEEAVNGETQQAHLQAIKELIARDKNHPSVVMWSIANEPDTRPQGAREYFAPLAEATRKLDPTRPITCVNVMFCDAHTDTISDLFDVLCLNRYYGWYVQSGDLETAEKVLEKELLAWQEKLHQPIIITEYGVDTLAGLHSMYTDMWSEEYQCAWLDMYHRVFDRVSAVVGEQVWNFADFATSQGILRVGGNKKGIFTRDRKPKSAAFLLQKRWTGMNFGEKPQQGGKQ
UniProt P12419, residues 471-721: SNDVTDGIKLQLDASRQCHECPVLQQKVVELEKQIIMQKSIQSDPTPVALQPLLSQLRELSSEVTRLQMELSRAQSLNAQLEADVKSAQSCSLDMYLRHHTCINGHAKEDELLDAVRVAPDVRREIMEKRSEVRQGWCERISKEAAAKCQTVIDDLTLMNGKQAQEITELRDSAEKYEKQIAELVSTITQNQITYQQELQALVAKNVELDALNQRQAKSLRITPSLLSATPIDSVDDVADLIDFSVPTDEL

The target in the assay is bacterial β-glucuronidase fused with maltose-binding protein (UniProt P05804). Kind of assay: pull-down; MBP-XIK GTD or MBP-GUS immobilised on resin; GFP-fused proteins detected before (input) and after pull-down by immunoblot with rabbit polyclonal GFP-specific antibody; done as described in ref. 30.

Regarding “C-terminal domain of mammalian reovirus non-structural protein μNS fused to GFP (from UniProt P12419-1 471-721) (domain or fragment)”, the binding entry is on record as “no binding”.

Source of the values: paper PMC4591342.
